Source: patent EP0684037B1, “Deodorant compositions” (UNILEVER PLC, priority 1994, dated 1995)

Test: Odour Intensity Index Method (panel, magnitude estimation against benzyl acetate standards)

## CC(=O)OCc1ccccc1 [Benzyl Acetate]
1% in dipropylene glycol
  Perceived Odour Index: 54
5% in dipropylene glycol
  Perceived Odour Index: 89
10% in dipropylene glycol
  Perceived Odour Index: 102
20% in dipropylene glycol
  Perceived Odour Index: 108
50% in dipropylene glycol
  Perceived Odour Index: 120
Neat
  Perceived Odour Index: 132
